Values quoted from earlier work in patent publication US20050009897A1, “Method of treatment” (priority 2001, published 2005).

Conditions: 45 hypertensive diabetic patients; cited from earlier work

CC(C)NCC(O)COc1ccc(CC(N)=O)cc1 (stereo not shown) [atenolol]
HbA1c: increased
